Results are given in words; binding and its absence hold for the method and conditions named. Binding seen in cells or lysates may run through a third protein. A yes stands for co-enrichment or nearness to the bait. Other partners may have been found. Sequences can lack the tags named with a protein.
Biological target: T1, Flag-FBLN7 (fibulin-7) expressed from recombinant adenovirus (UniProt Q501P1)
T1 sequence: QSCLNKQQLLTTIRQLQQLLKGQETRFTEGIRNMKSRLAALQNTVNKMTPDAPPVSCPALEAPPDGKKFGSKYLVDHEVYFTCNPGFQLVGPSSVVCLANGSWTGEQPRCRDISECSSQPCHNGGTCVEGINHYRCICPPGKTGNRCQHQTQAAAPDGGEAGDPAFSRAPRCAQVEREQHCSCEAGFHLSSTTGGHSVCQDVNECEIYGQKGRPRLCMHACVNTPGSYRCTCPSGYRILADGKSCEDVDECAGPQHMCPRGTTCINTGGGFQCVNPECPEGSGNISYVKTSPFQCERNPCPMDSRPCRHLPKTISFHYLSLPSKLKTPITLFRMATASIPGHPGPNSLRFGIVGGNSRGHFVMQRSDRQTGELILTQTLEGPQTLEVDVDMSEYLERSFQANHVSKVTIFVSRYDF
Test: affinity purification with mass spectrometry; VSMCs transfected with Flag-FBLN7 adenovirus; immunoprecipitation with Flag antibody; LC-MS/MS

B1: Flag-tagged full-length mouse SDC4 (receptor, UniProt O35988 24-198, looked up)
chain: ESIRETEVIDPQDLLEGRYFSGALPDDEDAGGSDDFELSGSGDLDDTEEPRPFPEVIEPLVPLDNHIPENAQPGIRVPSEPKELEENEVIPKRAPSDVGDDMSNKVSMSSTAQGSNIFERTEVLAALIVGGVVGILFAVFLILLLVYRMKKKDEGSYDLGKKPIYKKAPTNEFYA
notes: Plasmids provided by GenePharma; Seen as monomer, dimer and tetramer bands on non-reducing blots; also called Flag-SDC4; Flag (SDC4); source: HEK293T, transfected (pcDNA 3.1), in lysate; not shown: Flag, C-terminal, kept
binding: binds
